For at least one entry, the source does not settle the construct or the ends of the probe.
Tests used:
PCSK9 (Homo sapiens) [1] = test: filter binding; details: purified recombinant protein, single-stranded DNA
[2] = system: PCSK9 (Rattus norvegicus); test: filter binding; details: all C = PP-dC (5-position), all U = Nap-dU (5-position); aptamer identity per figure legend; text names 11733-198; purified recombinant protein; single-stranded DNA
PCSK9 (Mus musculus) = test: filter binding; details: all C = PP-dC (5-position), all U = Nap-dU (5-position); aptamer identity per figure legend; text names 11733-198; purified recombinant protein; single-stranded DNA
PCSK9 (Macaca mulatta) = test: filter binding; details: all C = PP-dC (5-position), all U = Nap-dU (5-position); aptamer identity per figure legend; text names 11733-198; purified recombinant protein; single-stranded DNA
PCSK9 (Homo sapiens) [3] = test: inhibition of the protein; details: all C = PP-dC (5-position), all U = Nap-dU (5-position), purified recombinant protein, single-stranded DNA

Chains of the proteins cited; added tags and fusions are not shown. Chains listed by the source or under a name are the forms on record and can include a tag or linker.
PCSK9 (Macaca mulatta), one chain, as listed by the source, chain 2 of 2: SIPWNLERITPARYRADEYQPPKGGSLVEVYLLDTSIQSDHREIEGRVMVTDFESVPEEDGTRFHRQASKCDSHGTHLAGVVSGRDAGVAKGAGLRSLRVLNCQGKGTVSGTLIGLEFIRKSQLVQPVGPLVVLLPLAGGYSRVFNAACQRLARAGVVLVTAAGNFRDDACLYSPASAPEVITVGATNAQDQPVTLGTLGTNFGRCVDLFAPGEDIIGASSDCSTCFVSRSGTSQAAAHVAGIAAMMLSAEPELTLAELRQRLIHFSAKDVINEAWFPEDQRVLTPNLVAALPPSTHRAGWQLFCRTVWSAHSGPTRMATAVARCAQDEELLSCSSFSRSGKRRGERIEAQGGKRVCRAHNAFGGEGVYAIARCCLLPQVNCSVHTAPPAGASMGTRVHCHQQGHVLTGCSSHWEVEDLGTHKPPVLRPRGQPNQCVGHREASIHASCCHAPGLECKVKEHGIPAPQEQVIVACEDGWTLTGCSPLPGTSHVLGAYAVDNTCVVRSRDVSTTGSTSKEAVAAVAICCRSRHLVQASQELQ
PCSK9 (Mus musculus), one chain, as listed by the source, chain 1 of 2: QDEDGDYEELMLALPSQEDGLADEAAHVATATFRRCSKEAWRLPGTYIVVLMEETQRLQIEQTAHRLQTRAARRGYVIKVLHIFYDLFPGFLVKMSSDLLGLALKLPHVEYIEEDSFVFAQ
PCSK9 (Macaca mulatta), one chain, as listed by the source, chain 1 of 2: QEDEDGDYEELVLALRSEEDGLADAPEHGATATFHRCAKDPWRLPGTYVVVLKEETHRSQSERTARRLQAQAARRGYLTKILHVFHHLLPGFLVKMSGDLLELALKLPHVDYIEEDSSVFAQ
PCSK9 (Rattus norvegicus), one chain, as listed by the source, chain 1 of 2: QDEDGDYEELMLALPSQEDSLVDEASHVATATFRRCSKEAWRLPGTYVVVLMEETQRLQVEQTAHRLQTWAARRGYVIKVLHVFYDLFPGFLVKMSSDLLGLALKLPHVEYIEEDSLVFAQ
PCSK9 (Homo sapiens), one chain, as listed by the source, chain 2 of 2: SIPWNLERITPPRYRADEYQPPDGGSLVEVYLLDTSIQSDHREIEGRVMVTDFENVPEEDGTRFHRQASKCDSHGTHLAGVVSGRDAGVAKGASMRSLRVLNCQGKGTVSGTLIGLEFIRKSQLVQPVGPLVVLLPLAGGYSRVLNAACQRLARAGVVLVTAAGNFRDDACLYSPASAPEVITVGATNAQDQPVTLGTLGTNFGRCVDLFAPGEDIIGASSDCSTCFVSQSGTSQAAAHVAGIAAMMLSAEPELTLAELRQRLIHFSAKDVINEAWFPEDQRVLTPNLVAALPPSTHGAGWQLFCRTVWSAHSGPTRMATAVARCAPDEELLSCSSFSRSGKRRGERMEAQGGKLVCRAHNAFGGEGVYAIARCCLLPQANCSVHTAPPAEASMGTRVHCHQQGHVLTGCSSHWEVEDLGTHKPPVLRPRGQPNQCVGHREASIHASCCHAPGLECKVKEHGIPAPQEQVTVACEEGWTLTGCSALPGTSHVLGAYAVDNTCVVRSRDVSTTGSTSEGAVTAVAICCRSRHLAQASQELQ
PCSK9 (Mus musculus), one chain, as listed by the source, chain 2 of 2: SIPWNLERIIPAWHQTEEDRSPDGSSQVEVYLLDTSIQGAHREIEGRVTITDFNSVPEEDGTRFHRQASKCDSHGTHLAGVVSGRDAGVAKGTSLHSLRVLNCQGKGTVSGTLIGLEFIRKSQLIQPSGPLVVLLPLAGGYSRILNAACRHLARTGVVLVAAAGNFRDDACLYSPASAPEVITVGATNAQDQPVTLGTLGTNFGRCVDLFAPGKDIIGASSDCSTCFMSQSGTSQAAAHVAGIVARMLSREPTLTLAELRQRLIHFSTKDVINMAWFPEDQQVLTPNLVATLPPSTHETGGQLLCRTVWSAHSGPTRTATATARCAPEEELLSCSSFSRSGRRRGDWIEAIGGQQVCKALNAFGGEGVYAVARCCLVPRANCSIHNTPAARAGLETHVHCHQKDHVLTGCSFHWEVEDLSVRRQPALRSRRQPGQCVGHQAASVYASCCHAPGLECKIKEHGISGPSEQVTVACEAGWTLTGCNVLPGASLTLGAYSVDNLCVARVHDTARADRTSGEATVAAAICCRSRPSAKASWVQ
PCSK9 (Rattus norvegicus), one chain, as listed by the source, chain 2 of 2: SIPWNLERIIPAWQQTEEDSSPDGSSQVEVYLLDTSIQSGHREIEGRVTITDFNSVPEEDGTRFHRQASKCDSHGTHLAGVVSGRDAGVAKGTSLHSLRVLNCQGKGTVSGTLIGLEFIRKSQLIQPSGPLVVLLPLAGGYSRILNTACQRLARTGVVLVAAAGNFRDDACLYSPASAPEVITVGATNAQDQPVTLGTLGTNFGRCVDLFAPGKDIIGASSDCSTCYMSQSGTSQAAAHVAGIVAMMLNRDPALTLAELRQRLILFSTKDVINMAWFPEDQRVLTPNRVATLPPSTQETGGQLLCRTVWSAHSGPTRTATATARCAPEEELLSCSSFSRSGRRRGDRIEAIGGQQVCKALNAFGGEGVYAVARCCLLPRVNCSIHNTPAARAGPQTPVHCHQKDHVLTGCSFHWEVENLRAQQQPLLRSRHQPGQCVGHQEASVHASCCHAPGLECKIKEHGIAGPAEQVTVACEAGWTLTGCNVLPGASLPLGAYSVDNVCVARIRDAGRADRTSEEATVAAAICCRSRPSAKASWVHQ
PCSK9 (Homo sapiens), one chain, as listed by the source, chain 1 of 2: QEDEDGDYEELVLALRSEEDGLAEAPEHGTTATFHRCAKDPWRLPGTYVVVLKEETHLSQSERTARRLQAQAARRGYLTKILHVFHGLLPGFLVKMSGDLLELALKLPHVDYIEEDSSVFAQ

**Q.** Which results are given for “AACGUACUUUAAGGCCUAUUGAGGAAACUC [11733-44 (SL1063)]”?
**A.** Kd (PCSK9 (Homo sapiens) [1]; all C = PP-dC (5-position), all U = Nap-dU (5-position), 30-mer, paragraph names 11733-91_5 (11733-198)): 0.0147 nM; Kd [2]: 0.165 nM; Kd (PCSK9 (Mus musculus)): 0.077 nM; Kd (PCSK9 (Macaca mulatta)): 0.0113 nM; EC50 (PCSK9 (Homo sapiens) [3]; blocks PCSK9 binding to LDL-R, room temperature, text names 11733-198): 2.1 nM; IC50 (PCSK9 (Homo sapiens) [3]; inhibition of human wild-type PCSK9): 2.8 nM

**Q.** With “CGUGCUUUAAGACCUGUUGAGAUGCGCUCA [11733-198]” as the sequence, how does the Kd (PCSK9 (Homo sapiens) [1]; all C = PP-dC (5-position), all U = Nap-dU (5-position), radiolabeled filter binding) read?
**A.** 0.07 nM

**Q.** Which Kd (PCSK9 (Homo sapiens) [1]; all C = Nap-dC (5-position), all U = Tyr-dU (5-position), radiolabeled filter binding) does the source give for “GUUAUCGCAAUGUGCGCCCGGGUGCCCGCC [11730-19]” here?
**A.** 0.2 nM

**Q.** With “AAGTTCCGGCCGCCTCGGGGTCCCTGCCAA [11730-6]” as the sequence, how does the Kd (PCSK9 (Homo sapiens) [1]; all C = Nap-dC (5-position), T unmodified, radiolabeled filter binding) read?
**A.** 0.1 nM
